# About 3,700 (7%) of roughly 53,000 sequences were called active.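 The calls were made as follows: active = gene knockdowns whose robust z-score for IL-1 alpha signal is at least 2 or at most -2, so actives lie on both sides; inactive = the rest.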 The list shows a part of the results.
# Assay: Components of the Cytosolic LPS Sensing Pathway: Gene Identification via Genome-wide siRNA Screen
# Details: RAW264.7 macrophages, IL-1a HTRF, actives lie on both sides, screened at 100 nM (by protocol), cells primed 5 h with Pam3CSK4 first
# Text: Non-canonical inflammasome activation by cytosolic LPS is a critical component of the host response to Gram-negative bacterial infection, however we lack a comprehensive understanding of the cellular processes that control this pathway. Here we describe a genome-wide siRNA screen to identify genes regulating the mouse macrophage IL-1 alpha response to cytosolic LPS.
# RAW264.7 cells were maintained in complete DMEM media, comprising DMEM with 4.5 g/L glucose, 10% FBS (Gemini Bio-Products, West Sacramento, CA), 2 mM Glutamine (Lonza) and 20 mM HEPES (Lonza), hereafter complete DMEM.
# The RNAi screen was conducted in 384-well format using the Ambion Silencer Mouse Genome siRNA Library (#4391425), which consists of three unique, nonoverlapping, nonpooled siRNAs for each of 17,000 gene targets. siRNA reagents ([…]) were stamped into 384-well white flat-bottom microplates (Corning, 3570) using a Velocity11 VPrep liquid handling system (Agilent) integrated into a BioCel robotic platform (Agilent) in columns 1-22, leaving columns 23-24 empty for negative (Ambion, Negative control #1) and positive (mouse Casp4) controls, respectively. The median value of each plate's negative control column was used to normalize sample wells, and the positive control was used to assess transfection efficiency and assay performance.
# Lipofectamine RNAiMAX Transfection Reagent ([…]; Invitrogen) was added in […] serum-free, antibiotic-free media to plate wells using a Thermo Scientific Matrix WellMate and Microplate Stacker. Plates were incubated for 45 min at room temperature to allow for the sufficient formation of siRNA-lipid complexes. Cells were seeded at a density of 1x10^4 cells per well in 20 microL media containing 20% (vol/vol) FBS without antibiotics. The final concentration of siRNA in each well was 100 nM. Cells were cultured for 48h at 37 degrees C in 5% CO2 before addition of […] of TLR ligand Pam3CSK4 for 5 hours. The medium was then removed, replaced with […] growth media and cell were transfected with […] of LipidA and TransIT-TKO (Mirus) for 24 hour. At the end of the LipidA treatment, […] of supernatant was transferred to a 384 Greiner Bio-one non-binding low volume plate and […] of IL-1a HTRF reagent (Cisbio, 62MIL1APEH) was added and incubated at room temperature overnight. The plates were read on an EnVision plate reader (PerkinElmer). Cell viability was measured by adding 20ul Cell Titer Glo to the original plate and running a luminescence read on the EnVision. The quantified IL-1a signal for each siRNA gene-targeted well was divided by the median of the negative control wells and multiplied by 100 to achieve a negative control normalized value for each well/siRNA. This normalized value was then used to generate a robust z-score by first taking the log of each value and then by subtracting the median and dividing by the […].
row,Sequence,z-score
1,GGCCAUCAAGGUCUUUUCUTT against Washc1,inactive: -1.34
2,GGCCUUCAAAGCAAUAGGATT against Dnajc18,inactive: -0.718
3,GCCAUACUCUUUCUAAAAUTT against Tmem127,inactive: 1.63
4,GGAGAUUAUAGGGAAGCUCTT against Il3,inactive: 0.82
5,GGAUCCAAGUGAACGACCUTT against Ppp1r9b,inactive: -0.507
6,CCUGGAAUACAAGACAUGATT against Ecm2,inactive: 0.247
7,GCCAUUGCUAUCCAUCGUGTT against Ddx39b,active: -2.57
8,CCGACAGCUCUAAAGGAACTT against Celf6,inactive: 0.838
9,GGAGAAAGCUGCUCAUGAATT against Caml,inactive: -0.477
10,CCAUCUCUAGAGCAAGACUTT against Cs,inactive: 0.892
11,GGUUGUGACAAUGUGGUACTT against Coro1b,inactive: 1.15
12,GCAAAUGGAUAACUUGUACTT against Epas1,inactive: -0.865
13,GGAAGAGCACCUCCAGUCATT against Rnf114,inactive: -1.26
14,CCUCUGCUUUGUUACUUCCTT against Olfr1431,inactive: -0.287
15,GGCAUGAGUUCUACCUUCUTT against Tssc4,inactive: -0.301
16,GGACAGAAUUAAGGAUGUCTT against Fdxr,inactive: -0.337
17,CCACAAAUGAGCGCAGAGUTT against Erg,inactive: -0.616
18,GGCCUUGGAACUUAAACGGTT against Dhdds,inactive: -0.0243
19,CCCAUUAAUUCGACAACUATT against Ppp1r1c,inactive: 1.04
20,GCCAAUGGAGGGUUGGAUUTT against Med16,inactive: 0.0771
21,GGACAUUUCUUCUGUUACCTT against Ncmap,inactive: 0.816
22,GCUAAUUAAGAAGAGAGCATT against Gclc,inactive: -0.566
23,GGUUCCAGAUGUGAUCAGUTT against Tbc1d4,inactive: 0.305

# Quoted at random: two entries already listed.
row,Sequence,z-score
10,CCAUCUCUAGAGCAAGACUTT against Cs,inactive: 0.892
8,CCGACAGCUCUAAAGGAACTT against Celf6,inactive: 0.838

# More results follow.

row,Sequence,z-score
1,GGGAUUAAACUGCUCUGUGTT against 1700019N19Rik,inactive: -0.383
2,GGACCUGUUUUGGAAAUAUTT against Jchain,inactive: -0.613
3,GCAGAAAAGGUCUACGUGCTT against Azgp1,inactive: 1.8
4,GCCGUCCUUACACCUUUAUTT against Olfr599,inactive: -0.601
5,GGGUUGAUAGAAGUUUUUATT against Cpeb1,inactive: 0.612
6,GCAGAAAUUAAGGCCUUAATT against Bicd1,inactive: -0.248
7,GGAGAAGAAAGGUUACAUCTT against Calml4,inactive: -0.647
8,GGAUCUUCAAUCUUUUUCATT against Skint11,inactive: -0.37
9,GGAUCAACCACAUCAGCUCTT against Hrh2,inactive: -0.838
10,GCCAAUGAAUACUUGCCCATT against Farp2,inactive: -1.3
11,GGAGGGUAUUAUUGACAUATT against Gnat1,inactive: 0.651
12,GGGACUCGGAUAUUCGUGUTT against Adcy7,inactive: 0.888
13,GGAUGGAAGAAGAAAGAAUTT against Enox2,inactive: -1.94
14,GGGUUACUGCUUUGAUAGUTT against Epcam,inactive: 0.0555
15,CCGAAACCAGCGUAUCCUGTT against Cpn1,inactive: -1.08
16,GGAGGAUGCAAUUUUUAACTT against Sult1e1,inactive: 0.771
17,GGUCAAAGUGUAACUUGUUTT against Rwdd4a,inactive: -0.0956
18,GGUUUUAGGAGAACUGUCATT against Twnk,inactive: 0.0265
19,GCAAGGGUUUGGUAGUAGGTT against Nup188,inactive: 0.324
20,GGCUUAGUGCCUCUAAAAGTT against Aqp6,inactive: 0.749
21,GGCUCAAAGGCUACAGCAATT against Ctsw,inactive: -1.8
22,GGAUUUUUUGAUUACUGUGTT against Oca2,inactive: -0.359
23,GGUCUUCAUCUGUCCAACUTT against Tmlhe,active: -2.09

row,Sequence,z-score
1,GGGUCUCAAAAGAGCAGGUTT against Neurl1a,inactive: 1.67
2,GGACCUGUGGUUGUUGUUCTT against Tll2,inactive: 0.294
3,GGUGGUAAAGACGAUUGGCTT against Ezr,inactive: -0.209
4,GGCUGACUCGCUUUCACCATT against Efna2,inactive: 0.522
5,CCCUCAUGUUUCAUUUGUGTT against Glrx3,inactive: -0.454
6,CCAAAUACGACUUACGAAATT against Ncam2,inactive: 0.246
7,GCUAAAUCCUUGACACCCATT against Fam161a,inactive: -1.42
8,GCAAAGUUAUUUCGCUUGGTT against Mgst2,inactive: 0.61
9,GGCAUGGACAAAGAGAAGGTT against Nol6,inactive: -1.17
10,GGCAGUAGUUAGCAAAUAUTT against Ska1,inactive: -1.24
11,GCCAAUCAAAUCAACCAUATT against Ints6,inactive: -1.21
12,GGUGAGACAGAUAAAGUUCTT against Olfr1124,inactive: 1.15
13,GGAGUUUGUGGAUGACUUUTT against Clip1,inactive: 0.767
14,GGUUUUUACUUUUUGGUCCTT against Pllp,inactive: -0.07
15,GGUUUUUUACACAACAUGCTT against Lgalsl,inactive: 0.952
16,GUUUCGAUUAUGUUAAAGCTT against Rasl10a,inactive: 0.683
17,GGCUAAAAAAGUCUCAGCCTT against Pbx2,inactive: -0.536
18,GCUUGUGCGGGUGAUAGACTT against Pars2,inactive: 1.97
19,GGAGAUUGAGAAGUUUCUATT against Gpn3,inactive: 1.87
20,GGAGGACGAGAACAGUAAGTT against Sap30bp,inactive: 0.0387
21,GCUAUAGUUCUCUUUAGUCTT against Nr2c2,inactive: 0.837
22,GGCAAAACAUGCUUGGACCTT against Zfp687,active: 2.31
23,GGACAUGUAUAAGAAGAUGTT against Itpka,inactive: -0.25
